Data as given in publication PMC3471885.
These are yes or no findings as the source states them, for the method shown. In cells and extracts the contact can be indirect. Some entries that bind do so weakly or less than the wild type.

Sequences of proteins named here, by UniProt entry; tags and fusion partners are left off.
UniProt Q6R327: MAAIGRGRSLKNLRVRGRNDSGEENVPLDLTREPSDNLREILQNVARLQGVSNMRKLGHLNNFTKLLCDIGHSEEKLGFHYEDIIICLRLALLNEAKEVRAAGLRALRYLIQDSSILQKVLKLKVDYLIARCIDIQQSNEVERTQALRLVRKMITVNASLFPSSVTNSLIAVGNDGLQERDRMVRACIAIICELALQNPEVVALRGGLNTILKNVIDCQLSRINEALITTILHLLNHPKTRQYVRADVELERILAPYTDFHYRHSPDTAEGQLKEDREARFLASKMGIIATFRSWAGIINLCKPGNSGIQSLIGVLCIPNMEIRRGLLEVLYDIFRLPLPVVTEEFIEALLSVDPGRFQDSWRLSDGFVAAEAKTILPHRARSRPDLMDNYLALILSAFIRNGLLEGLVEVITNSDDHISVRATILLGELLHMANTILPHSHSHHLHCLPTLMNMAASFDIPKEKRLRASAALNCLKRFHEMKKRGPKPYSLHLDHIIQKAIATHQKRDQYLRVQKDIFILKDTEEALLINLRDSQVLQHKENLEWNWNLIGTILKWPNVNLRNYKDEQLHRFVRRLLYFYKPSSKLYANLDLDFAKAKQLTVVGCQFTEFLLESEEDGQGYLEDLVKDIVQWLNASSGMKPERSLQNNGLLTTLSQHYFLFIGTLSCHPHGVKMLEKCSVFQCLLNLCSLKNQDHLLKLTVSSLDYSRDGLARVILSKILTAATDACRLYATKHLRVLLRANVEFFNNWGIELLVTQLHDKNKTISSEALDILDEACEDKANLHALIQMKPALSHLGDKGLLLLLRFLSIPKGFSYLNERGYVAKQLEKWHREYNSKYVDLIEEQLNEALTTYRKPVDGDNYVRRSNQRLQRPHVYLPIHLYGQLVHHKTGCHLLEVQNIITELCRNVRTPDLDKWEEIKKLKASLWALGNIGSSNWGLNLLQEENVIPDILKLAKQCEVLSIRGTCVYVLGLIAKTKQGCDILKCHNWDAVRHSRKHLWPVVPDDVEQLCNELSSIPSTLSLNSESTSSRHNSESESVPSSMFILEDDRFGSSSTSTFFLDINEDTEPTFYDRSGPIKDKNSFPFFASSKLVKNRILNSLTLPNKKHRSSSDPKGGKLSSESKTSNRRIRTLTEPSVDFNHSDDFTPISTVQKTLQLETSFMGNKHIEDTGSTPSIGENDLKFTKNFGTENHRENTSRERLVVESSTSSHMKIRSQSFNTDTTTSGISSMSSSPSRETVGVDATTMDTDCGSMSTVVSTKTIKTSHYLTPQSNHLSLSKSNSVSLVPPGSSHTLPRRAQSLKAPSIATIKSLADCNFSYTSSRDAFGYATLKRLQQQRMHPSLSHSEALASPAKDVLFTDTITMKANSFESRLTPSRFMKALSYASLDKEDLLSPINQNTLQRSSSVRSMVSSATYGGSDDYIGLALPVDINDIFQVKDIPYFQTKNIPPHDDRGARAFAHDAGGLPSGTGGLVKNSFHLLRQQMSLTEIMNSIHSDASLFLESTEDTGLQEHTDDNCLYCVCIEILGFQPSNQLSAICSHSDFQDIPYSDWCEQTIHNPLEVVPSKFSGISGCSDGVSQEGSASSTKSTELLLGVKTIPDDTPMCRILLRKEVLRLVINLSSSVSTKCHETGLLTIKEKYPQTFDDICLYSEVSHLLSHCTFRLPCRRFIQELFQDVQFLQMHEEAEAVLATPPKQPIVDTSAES
UniProt Q9WTI7: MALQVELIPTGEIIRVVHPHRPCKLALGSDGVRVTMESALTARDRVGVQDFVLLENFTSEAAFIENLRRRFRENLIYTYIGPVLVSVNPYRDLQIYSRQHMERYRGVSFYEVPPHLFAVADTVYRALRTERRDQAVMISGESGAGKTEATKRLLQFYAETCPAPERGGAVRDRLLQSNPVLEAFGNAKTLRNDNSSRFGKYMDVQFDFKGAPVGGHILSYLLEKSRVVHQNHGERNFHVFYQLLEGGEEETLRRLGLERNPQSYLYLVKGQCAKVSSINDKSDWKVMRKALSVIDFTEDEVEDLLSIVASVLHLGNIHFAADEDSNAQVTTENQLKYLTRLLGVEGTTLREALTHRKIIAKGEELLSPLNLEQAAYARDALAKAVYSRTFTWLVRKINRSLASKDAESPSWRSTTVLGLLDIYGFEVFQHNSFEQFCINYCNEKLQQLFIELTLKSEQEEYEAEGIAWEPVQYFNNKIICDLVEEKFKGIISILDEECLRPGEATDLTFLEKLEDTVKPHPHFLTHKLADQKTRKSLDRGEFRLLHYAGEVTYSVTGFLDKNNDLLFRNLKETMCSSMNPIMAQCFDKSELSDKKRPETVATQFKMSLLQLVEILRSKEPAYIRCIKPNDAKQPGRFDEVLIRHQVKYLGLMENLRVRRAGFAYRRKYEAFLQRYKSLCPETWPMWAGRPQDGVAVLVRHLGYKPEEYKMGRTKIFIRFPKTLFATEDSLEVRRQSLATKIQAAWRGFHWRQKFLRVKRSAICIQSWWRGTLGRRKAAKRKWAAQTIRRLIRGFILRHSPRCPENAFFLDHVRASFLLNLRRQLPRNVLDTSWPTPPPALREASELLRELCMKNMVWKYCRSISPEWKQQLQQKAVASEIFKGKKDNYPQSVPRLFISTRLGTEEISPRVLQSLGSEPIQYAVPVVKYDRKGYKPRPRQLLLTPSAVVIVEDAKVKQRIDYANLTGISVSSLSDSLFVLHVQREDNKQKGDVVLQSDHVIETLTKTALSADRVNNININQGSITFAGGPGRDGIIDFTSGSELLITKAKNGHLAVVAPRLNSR

Biological target: human myc-tagged Rictor (human) (UniProt Q6R327)
Assay: co-IP; whole cell lysate of Ric0 cells immunoprecipitated with anti-Myo1C or anti-myc antibodies, immunoblotted for the myc-tag or Myo1C; normal mouse IgG as non-specific control

binding: binds
Substance: unconventional myosin Myo1C (from UniProt Q9WTI7 1-1063)
